# Reference: the supplement of paper PMC8728848
# Some of the results follow.
# B1: LlpB (Pseudomonas fluorescens) (protein)
# chain: MGSSHHHHHHSSGLVPRGSHMASSGFRIILFNSANNGTAILPPRNCLVAGQYLESPSKRYKLILEADGNLRLYDNGVPIWVADSSVPYTYVDNRPNTNLVTCFYMQGSAFLVDRVGSRTWATIGDWIDGAADRAYLQVQDDGNVVVVDGVPRWARFGFTPAALPNRGVFYPDHGTGPLPSFPVWSWTF
# How the values were obtained:
# Assay in all cases: glycan array binding signal (z-score within array); higher = stronger binding
# Conditions in all cases: glycan notation: IUPAC condensed, linker removed
# Gal(b1-2)Gal = target: Gal(b1-2)Gal
# Method in brief: (§1)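 The Consortium for Functional Glycomics database supplied 3228 glycan arrays, of which those lacking an available protein sequence were dropped. The binding signal, a within-array Z-score, was averaged across arrays of the same protein sequence and across linkers. Negative scores can be read as non-binding.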
# Gal(b1-3)Gal = target: Gal(b1-3)Gal
# Method in brief: as §1
# Gal(b1-3)Gal(b1-4)GlcNAc = target: Gal(b1-3)Gal(b1-4)GlcNAc
# Method in brief: as §1
# Gal(b1-3)GalNAc = target: Gal(b1-3)GalNAc
# Method in brief: as §1
# [1] = target: Gal(b1-3)GalNAc(a1-3)[Fuc(a1-2)]Gal(b1-4)Glc
# Method in brief: as §1
# [2] = target: Gal(b1-3)GalNAc(a1-3)[Fuc(a1-2)]Gal(b1-4)GlcNAc
# Method in brief: as §1
# Gal(b1-3)GalNAc(b1-3)Gal = target: Gal(b1-3)GalNAc(b1-3)Gal
# Method in brief: as §1
# [3] = target: Gal(b1-3)GalNAc(b1-3)Gal(a1-4)Gal(b1-4)Glc
# Method in brief: as §1
# [4] = target: Gal(b1-3)GalNAc(b1-4)Gal(b1-4)Glc
# Method in brief: as §1
# [5] = target: Gal(b1-3)GalNAc(b1-4)[Neu5Ac(a2-3)]Gal(b1-4)Glc
# Method in brief: as §1
# Gal(b1-3)GlcNAc = target: Gal(b1-3)GlcNAc
# Method in brief: as §1
# [6] = target: Gal(b1-3)GlcNAc(a1-3)Gal(b1-4)GlcNAc
# Method in brief: as §1
# [7] = target: Gal(b1-3)GlcNAc(a1-6)Gal(b1-4)GlcNAc
# Method in brief: as §1
# Gal(b1-3)GlcNAc(b1-2)Man = target: Gal(b1-3)GlcNAc(b1-2)Man
# Method in brief: as §1
# [8] = target: Gal(b1-3)GlcNAc(b1-2)Man(a1-3)[Gal(b1-3)GlcNAc(b1-2)Man(a1-6)]Man(b1-4)GlcNAc(b1-4)GlcNAc
# Method in brief: as §1
# [9] = target: Gal(b1-3)GlcNAc(b1-2)Man(a1-3)[Gal(b1-3)GlcNAc(b1-2)Man(a1-6)]Man(b1-4)GlcNAc(b1-4)[Fuc(a1-6)]GlcNAc
# Method in brief: as §1
# [10] = target: Gal(b1-3)GlcNAc(b1-2)Man(a1-3)[GlcNAc(b1-4)][Gal(b1-3)GlcNAc(b1-2)Man(a1-6)]Man(b1-4)GlcNAc(b1-4)GlcNAc
# Method in brief: as §1
# [11] = target: Gal(b1-3)GlcNAc(b1-2)[Gal(b1-3)GlcNAc(b1-6)]Man(a1-6)[Gal(b1-3)GlcNAc(b1-2)Man(a1-3)]Man(b1-4)GlcNAc(b1-4)GlcNAc
# Method in brief: as §1
# [12] = target: Gal(b1-3)GlcNAc(b1-3)Gal(b1-3)GlcNAc
# Method in brief: as §1
# [13] = target: Gal(b1-3)GlcNAc(b1-3)Gal(b1-4)Glc
# Method in brief: as §1
# [14] = target: Gal(b1-3)GlcNAc(b1-3)Gal(b1-4)GlcNAc
# Method in brief: as §1
# [15] = target: Gal(b1-3)GlcNAc(b1-3)Gal(b1-4)GlcNAc(b1-2)Man(a1-3)[Gal(b1-3)GlcNAc(b1-3)Gal(b1-4)GlcNAc(b1-2)Man(a1-6)]Man(b1-4)GlcNAc(b1-4)GlcNAc
# Method in brief: as §1
# [16] = target: Gal(b1-3)GlcNAc(b1-3)Gal(b1-4)GlcNAc(b1-2)[Gal(b1-3)GlcNAc(b1-3)Gal(b1-4)GlcNAc(b1-6)]Man(a1-6)[Gal(b1-3)GlcNAc(b1-3)Gal(b1-4)GlcNAc(b1-2)Man(a1-3)]Man(b1-4)GlcNAc(b1-4)[Fuc(a1-6)]GlcNAc
# Method in brief: as §1
# [17] = target: Gal(b1-3)GlcNAc(b1-3)Gal(b1-4)GlcNAc(b1-3)Gal(b1-4)GlcNAc(b1-2)[Gal(b1-3)GlcNAc(b1-3)Gal(b1-4)GlcNAc(b1-3)Gal(b1-4)GlcNAc(b1-6)]Man(a1-6)[Gal(b1-3)GlcNAc(b1-3)Gal(b1-4)GlcNAc(b1-3)Gal(b1-4)GlcNAc(b1-2)Man(a1-3)]Man(b1-4)GlcNAc(b1-4)[Fuc(a1-6)]GlcNAc
# Method in brief: as §1
# [18] = target: Gal(b1-3)GlcNAc(b1-3)Gal(b1-4)GlcNAc(b1-6)[Gal(b1-3)GlcNAc(b1-3)]Gal(b1-4)Glc
# Method in brief: as §1
# [19] = target: Gal(b1-3)GlcNAc(b1-3)Gal(b1-4)[Fuc(a1-3)]GlcNAc
# Method in brief: as §1
# [20] = target: Gal(b1-3)GlcNAc(b1-3)Gal(b1-4)[Fuc(a1-3)]GlcNAc(b1-6)[Gal(b1-3)GlcNAc(b1-3)]Gal(b1-4)Glc
# Method in brief: as §1
# [21] = target: Gal(b1-3)GlcNAc(b1-3)GalNAc
# Method in brief: as §1
# [22] = target: Gal(b1-3)GlcNAc(b1-6)Gal(b1-4)GlcNAc
# Method in brief: as §1
# [23] = target: Gal(b1-3)GlcNAc(b1-6)GalNAc
# Method in brief: as §1
# [24] = target: Gal(b1-3)GlcNAc(b1-6)[Gal(b1-3)]GalNAc
# Method in brief: as §1
# Gal(b1-3)GlcNAc6S = target: Gal(b1-3)GlcNAc6S
# Method in brief: as §1
# [25] = target: Gal(b1-3)[Fuc(a1-4)]GlcNAc
# Method in brief: as §1
# [26] = target: Gal(b1-3)[Fuc(a1-4)]GlcNAc(b1-2)Man
# Method in brief: as §1
# [27] = target: Gal(b1-3)[Fuc(a1-4)]GlcNAc(b1-2)Man(a1-3)[Gal(b1-3)[Fuc(a1-4)]GlcNAc(b1-2)Man(a1-6)]Man(b1-4)GlcNAc(b1-4)[Fuc(a1-6)]GlcNAc
# Method in brief: as §1
# [28] = target: Gal(b1-3)[Fuc(a1-4)]GlcNAc(b1-3)Gal(b1-3)[Fuc(a1-4)]GlcNAc
# Method in brief: as §1
# [29] = target: Gal(b1-3)[Fuc(a1-4)]GlcNAc(b1-3)Gal(b1-4)[Fuc(a1-3)]GlcNAc
# Method in brief: as §1
# [30] = target: Gal(b1-3)[Fuc(a1-4)]GlcNAc(b1-6)GalNAc
# Method in brief: as §1
# [31] = target: Gal(b1-3)[GlcNAc(b1-6)]GalNAc
# Method in brief: as §1
# [32] = target: Gal(b1-3)[Neu5Ac(a2-6)]GalNAc
# Method in brief: as §1
# [33] = target: Gal(b1-3)[Neu5Ac(a2-6)]GlcNAc(b1-4)Gal(b1-4)Glc
# Method in brief: as §1
# [34] = target: Gal(b1-3)[Neu5Ac(b2-6)]GalNAc
# Method in brief: as §1
# Gal(b1-4)Gal = target: Gal(b1-4)Gal
# Method in brief: as §1
# [35] = target: Gal(b1-4)GalNAc(a1-3)[Fuc(a1-2)]Gal(b1-4)GlcNAc
# Method in brief: as §1
# [36] = target: Gal(b1-4)GalNAc(b1-3)[Fuc(a1-2)]Gal(b1-4)GlcNAc
# Method in brief: as §1
binder,measurement,setting,value
B1,glycan array binding signal (z-score),Gal(b1-2)Gal,-0.578
same,glycan array binding signal (z-score),Gal(b1-3)Gal,-0.357
same,glycan array binding signal (z-score),Gal(b1-3)Gal(b1-4)GlcNAc,-0.271
same,glycan array binding signal (z-score),Gal(b1-3)GalNAc,0.211
same,glycan array binding signal (z-score),[1],0.486
same,glycan array binding signal (z-score),[2],-0.127
same,glycan array binding signal (z-score),Gal(b1-3)GalNAc(b1-3)Gal,-0.528
same,glycan array binding signal (z-score),[3],-0.025
same,glycan array binding signal (z-score),[4],0.811
same,glycan array binding signal (z-score),[5],-0.792
same,glycan array binding signal (z-score),Gal(b1-3)GlcNAc,0.344
same,glycan array binding signal (z-score),[6],0.12
same,glycan array binding signal (z-score),[7],-0.47
same,glycan array binding signal (z-score),Gal(b1-3)GlcNAc(b1-2)Man,-0.419
same,glycan array binding signal (z-score),[8],-0.522
same,glycan array binding signal (z-score),[9],-0.303
same,glycan array binding signal (z-score),[10],0.841
same,glycan array binding signal (z-score),[11],1.49
same,glycan array binding signal (z-score),[12],-1.37
same,glycan array binding signal (z-score),[13],-0.526
same,glycan array binding signal (z-score),[14],0.129
same,glycan array binding signal (z-score),[15],0.167
same,glycan array binding signal (z-score),[16],0.879
same,glycan array binding signal (z-score),[17],0.21
same,glycan array binding signal (z-score),[18],0.883
same,glycan array binding signal (z-score),[19],0.523
same,glycan array binding signal (z-score),[20],1.41
same,glycan array binding signal (z-score),[21],-0.353
same,glycan array binding signal (z-score),[22],-1.45
same,glycan array binding signal (z-score),[23],0.142
same,glycan array binding signal (z-score),[24],-0.029
same,glycan array binding signal (z-score),Gal(b1-3)GlcNAc6S,-0.915
same,glycan array binding signal (z-score),[25],-0.038
same,glycan array binding signal (z-score),[26],2.49
same,glycan array binding signal (z-score),[27],1.53
same,glycan array binding signal (z-score),[28],-1.29
same,glycan array binding signal (z-score),[29],-1.22
same,glycan array binding signal (z-score),[30],0.714
same,glycan array binding signal (z-score),[31],1.22
same,glycan array binding signal (z-score),[32],-0.167
same,glycan array binding signal (z-score),[33],-0.162
same,glycan array binding signal (z-score),[34],-0.814
same,glycan array binding signal (z-score),Gal(b1-4)Gal,0.36
same,glycan array binding signal (z-score),[35],-1.06
same,glycan array binding signal (z-score),[36],-0.887
